# According to the supplement of paper PMC3334620:
# Over roughly 33,000 sequences, “E-score (-0.5 to 0.5)” has its median near -0.0014; the highest 2% begin near 0.25. This is one part of the list.
# Target: T1, Cad1 (UniProt P24813)
# T1 sequence: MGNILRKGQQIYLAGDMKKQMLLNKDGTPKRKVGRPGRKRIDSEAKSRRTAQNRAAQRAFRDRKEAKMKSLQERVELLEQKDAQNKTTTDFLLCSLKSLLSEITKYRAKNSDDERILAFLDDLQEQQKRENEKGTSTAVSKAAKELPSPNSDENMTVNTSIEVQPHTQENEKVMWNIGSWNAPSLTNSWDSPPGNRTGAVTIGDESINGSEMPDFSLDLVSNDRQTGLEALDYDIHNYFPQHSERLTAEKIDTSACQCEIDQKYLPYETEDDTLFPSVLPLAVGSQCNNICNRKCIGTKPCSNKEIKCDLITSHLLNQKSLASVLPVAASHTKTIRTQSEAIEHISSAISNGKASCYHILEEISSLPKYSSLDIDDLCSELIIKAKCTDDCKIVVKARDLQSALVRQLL
# Test: PBM E-score (8-mer binding enrichment) (E-score (-0.5 to 0.5)); higher = stronger / more preferred TF binding
# Settings: protein concentration: 100 nM; construct: GST-full length
# Procedure, shortened: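 Detection of bound protein used fluorescent anti-GST, with scans normalised by masliner. The proteins were GST-tagged yeast transcription factors applied at about 100-200 nM to universal all-10-mer Agilent arrays made double-stranded by primer extension. Each ungapped eight-base word, pooled with its reverse complement, was scored with an E-score from the Universal PBM Analysis Suite.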
row,Sequence,PBM E-score
1,AATTGATA,0.206
2,ATGACACA,0.194
3,AGCGGGAA,0.00454
4,ATGATCGC,-0.112
5,CCCCTCTC,-0.317
6,CGAACTCA,0.0536
7,GCAGCCAC,0.0416
8,ATACTCCA,-0.0197
9,ACCCTGTG,-0.0694
10,CCCGGTTA,-0.276
11,AACTCCAT,-0.00749
12,GCGGTTCC,0.0736
13,AAACGCGT,0.0821
14,CAATCTCA,0.0264
15,AAACCAGT,0.0211
16,CGGCCGCA,0.134
17,ACGGAATC,0.0332
18,AAAAGTCG,0.0124
19,GTGATTAA,0.228
20,GATTCTAC,-0.0358
21,GCACGACA,0.00295
22,TCGAGAGA,0.00679
23,AACTGGCG,-0.00717
24,CGAGGGAC,-0.252
25,CTACCTAG,-0.0511

row,Sequence,PBM E-score
1,AAGGTAAT,0.14
2,CTAAGCCC,-0.0174
3,GATGTCGA,0.0845
4,CTGCCCTA,-9e-05
5,AAGAATGG,-0.094
6,CGATCGTA,0.148
7,AATATTTC,0.264
8,AGTTTGCG,0.0342
9,TAGGAGCA,-0.179
10,ATAGGGGA,-0.148
11,GGCCGTGA,-0.022
12,GCAGTCGC,0.0474
13,AGGTACCC,-0.138
14,CTTATAGC,0.0436
15,CATCCAAC,-0.0683
16,ATGAGGCA,-0.148
17,ATATGCGC,0.0876
18,ATATCATA,0.166
19,GACGTTGC,0.112
20,AACCCGGG,-0.0945
21,GAGGGTGA,-0.138
22,TAGCTAGA,0.036
23,AAGTACGG,-0.0837
24,CATAGTAG,0.0761
25,CTATGAGC,-0.113

# Nothing new here: entries from further up.
row,Sequence,PBM E-score
22,TCGAGAGA,0.00679
23,AACTGGCG,-0.00717
24,CGAGGGAC,-0.252

# Going on with the list:

row,Sequence,PBM E-score
1,AAGTCCCC,-0.285
2,CAATGCTC,-0.0896
3,ATTGTAAG,0.00166
4,CAAACTTG,0.0981
5,CGGCACCG,0.123
6,AATGCCGC,0.186
7,CACGACTC,0.0563
8,GAACAACC,0.067
9,CAGAGGGC,-0.213
10,ACTACAGG,0.0099
11,ATGACGAA,0.145
12,CTACCAGC,-0.0889
13,ACTCGGAC,0.138
14,AGAAGCGG,-0.185
15,CCGTGGGC,-0.0576
16,AGCCAGTC,-0.129
17,AGACTGCC,0.0356
18,CACCACCG,-0.227
19,ACTAAGCT,0.223
20,AGTTTGAG,0.0378
21,AGTATGAA,0.113
22,TAGTTGGA,0.0156
23,TCGGCTAA,0.0525
24,AGACGGTA,-0.0335
25,AGAATGAA,0.0669

row,Sequence,PBM E-score
1,ACTCGAGT,0.311
2,CACCCAGC,-0.217
3,GCTCAGAC,-0.0381
4,AACCCGTT,-0.188
5,AATTGGGG,-0.0465
6,AGGCAGCC,-0.126
7,AAAACGGG,0.151
8,CGCCTCCC,-0.228
9,GAAGCTCA,-0.0369
10,ATCCACCA,0.0363
11,CAAGAGCA,-0.251
12,CCACGCAA,0.103
13,CTTGCTTA,0.107
14,ACGCGCAC,0.134
15,GAAGAGCA,-0.27
16,AACACATA,0.153
17,GTGCCTGA,-0.16
18,TCAACAAA,0.101
19,TACACCGA,-0.0418
20,AACCCGGT,-0.114
21,ATATGCCA,0.0827
22,GAAAAGGC,-0.113
23,AAACGATG,0.0272
24,ATATGGGC,0.0487
25,TAGCTGCA,-0.0732

row,Sequence,PBM E-score
1,ACAACGGT,-0.0127
2,ACACGGTA,0.039
3,TACAGATA,0.187
4,AAAGAGAT,-0.0632
5,AATCCTGC,0.0951
6,CCACCGAC,-0.112
7,GGTCTCCA,-0.0556
8,GAGTCTTA,-0.144
9,CCTTGACG,-0.107
10,AATTACGA,0.148
11,AGAGCGTG,-0.0848
12,CCATGACC,-0.225
13,AGCCGCGC,0.189
14,CCTTCCAG,-0.131
15,GGCCCGCA,-0.108
16,AGATGCCA,-0.163
17,AATGAAGA,0.0403
18,AGGTGGCC,-0.237
19,CACAAGGG,-0.2
20,ACACAGGT,-0.0976
21,ATAAGTAG,-0.0551
22,AGTGGGAC,-0.217
23,ATGCGAAA,0.215
24,CTTATCTA,0.226
25,ACTCAGGG,-0.0494

row,Sequence,PBM E-score
1,CGAGCGCG,0.195
2,GGACACAC,0.0335
3,CACTAGGG,-0.236
4,AGTACAAC,-0.129
5,CAATGCGG,0.0983
6,AAGTATAG,-0.0893
7,CCTAGTTC,-0.101
8,AATCGACA,0.304
9,ATTGCGAG,-0.0163
10,TATTTTCA,0.187
11,ACTCGTCG,-0.126
12,TCTGGGAA,0.0282
13,AGCTACCT,0.0613
14,GTTCTAGA,0.166
15,CTGCTCCA,-0.00118
16,AGCTTTTG,-0.0584
17,TCGTCGAA,0.0954
18,CACACCAA,0.117
19,GCCACCAA,0.0659
20,ATGTCATA,0.188
21,GGAGACCC,-0.207
22,GCATGACA,0.0476
23,CTTCGGCC,0.00251
24,ATAGACAT,-0.0972
25,AACCAAAT,0.0908

row,Sequence,PBM E-score
1,CTGCGTTA,0.004
2,GATTGCCA,-0.0239
3,AGTCTTCA,-0.0242
4,AGTAGGGG,-0.192
5,AAAGTTGT,0.172
6,AACGAGGC,-0.101
7,ATTATGAG,-0.00228
8,ATCCACAG,-0.0132
9,ATTAGACG,0.0681
10,ATTGAATA,0.281
11,CGAACGGC,0.0897
12,GGCTGTGA,-0.157
13,GAGCAACC,0.00873
14,GACGTCCC,-0.00551
15,AGAACATG,-0.054
16,CCAACGGG,-0.192
17,CGGTATCA,0.0366
18,GCCCTTCA,-0.192
19,TGCTTAAA,0.108
20,CATGTATC,-0.0673
21,AGGTCGGA,-0.00641
22,AGCGTAAT,0.0476

# A different layout for part of the listing above:
row | Sequence | PBM E-score
17 | AATGAAGA | 0.0403
18 | AGGTGGCC | -0.237
19 | CACAAGGG | -0.2
20 | ACACAGGT | -0.0976
21 | ATAAGTAG | -0.0551
22 | AGTGGGAC | -0.217
23 | ATGCGAAA | 0.215
